Measured values: PubChem BioAssay AID1487 (National Center for Advancing Translational Sciences (NCATS), 2009)
Some of the results follow. The main result of the screen is listed elsewhere. These columns were measured beside it and carry no call. Most of these compounds were active or inconclusive in the main read-out, so they are no random draw. Potencies come from curve fits of mixed quality, noted in brackets.

Test: qHTS Assay for Modulators of Lamin A Splicing
Settings: HeLa LMNA splicing GFP/RFP minigene ratio, 48 h
Summary of the method: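 Read-out is the ratio of GFP to DsRed2 object intensity, acquired by 488 nm laser-scanning cytometry on HeLa lamin A-EGFP minigene reporter cells. Compound incubation 48 hrs at 37 °C in Opti-MEM with 2% FBS; DMSO 0.5% final.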

[1] = measured here: RFP viability control channel
[2] = measured here: GFP splicing reporter channel

Compound | AC50 [1] | AC50 [2]
CCc1ccc(S(=O)(=O)NCCc2csc(-c3cccnc3)n2)s1 | 35.5 µM [rising, single point] | 
N=C1c2c(cc(=O)n3c2[nH]c2ccccc23)CN1CCN1CCOCC1 | 6.31 µM [falling, partial curve, poor fit] | 
CCN(CC)S(=O)(=O)c1cccc(C(=O)Nc2nc3cc4c(cc3s2)OCCO4)c1 | 8.91 µM [rising, partial curve] | 35.5 µM [rising, single point]
COc1cc(/C=C/C(=O)O)cc(S(=O)(=O)Nc2ccccc2Cl)c1OC | 35.5 µM [falling, single point] | 
Cc1[nH]c(=S)[nH]c(=O)c1CCOc1ccccc1 | 35.5 µM [falling, partial curve, poor fit] | 
CSc1nnc(Cc2sc(-c3ccccc3)nc2-c2ccccc2)o1 | 12.6 µM [rising, single point] | 12.6 µM [rising, single point]
CCCC(=O)Nc1ncnc2c1ncn2C1OC2COP(=O)(O)OC2C1OC(=O)CCC (stereo not drawn) | 35.5 µM [falling, single point] | 0.141 µM [falling, single point]
CC(C)(C)N(Cc1ccccc1)C(=O)c1ccc2c(c1)OCCO2 | 10 µM [rising, partial curve] | 
Cc1nnc(N2CCOCC2)c2nn(-c3cccc(Cl)c3)c(C)c12 | 0.794 µM [rising, full curve, poor fit] | 0.794 µM [rising, full curve, poor fit]
COc1ccccc1OCc1nc(C#N)c(N2CC(C)CC(C)C2)o1 (stereo not drawn) | 17.8 µM [falling, partial curve] | 15.8 µM [falling, partial curve]
O=C1c2cc3ccccc3c(-c3ccccc3)c2C(=O)N1c1ccccn1 | 17.8 µM [rising, single point] | 
COc1ccc(-n2nnnc2SCC(=O)Nc2ccc3c(c2)OCCO3)cc1OC | 35.5 µM [falling, single point] | 35.5 µM [falling, single point]
O=C(Nc1ccc(Cl)cc1)N1CCSc2ccccc21 | 17.8 µM [rising, single point] | 
NC(=O)C1CCN(C(=O)COc2cccc3cccnc23)CC1 |  | 2.51 µM [falling, full curve, poor fit]
CNC(=O)c1c(NC(=O)c2ccc(S(=O)(=O)N3CCCCC3C)cc2)sc2c1CCC2 (stereo not drawn) | 35.5 µM [falling, single point] | 
Cc1cc(NC(=O)c2ccco2)ncc1NC(=O)CCc1ccccc1 | 35.5 µM [rising, single point] | 
Cc1cc(N=Cc2c(O)n(-c3cccc(Cl)c3)c(=O)c3ccccc23)no1 | 20 µM [rising, partial curve, poor fit] | 14.1 µM [rising, partial curve, poor fit]
CC1=C(n2nnc([N+](=O)[O-])n2)C(c2cccnc2)C(C#N)=C(N)O1 (stereo not drawn) | 14.1 µM [rising, single point] | 14.1 µM [rising, single point]
CCCC(=O)c1cc(F)c(N2CCN(S(=O)(=O)c3ccccc3)CC2)cc1C | 35.5 µM [rising, single point] | 
CS(=O)(=O)Nc1ccc(C2=NN(S(=O)(=O)c3ccccc3)C(c3cccs3)C2)cc1 (stereo not drawn) | 0.0178 µM [falling, full curve] | 0.0126 µM [falling, full curve, poor fit]
CCN(CCO)Cc1cc(=O)oc2cc3c(cc12)CCC3 | 2 µM [falling, partial curve, poor fit] | 
Cc1cc(/C=N/n2cnnc2)c(C)n1-c1cc(Cl)ccc1Cl | 22.4 µM [rising, single point] | 
CCOC(=O)c1cccc(NC(=O)CCc2c(C)nn(-c3ccc(N4CCOCC4)nn3)c2C)c1 |  | 0.00316 µM [falling, full curve, poor fit]
CCN(C(=O)CSc1nc2n[nH]c(C)c2c(=N)n1-c1cccc(OC)c1)c1cccc(C)c1 | 0.00316 µM [falling, full curve, poor fit] | 31.6 µM [falling, single point]
Cc1ccc(OCC(=O)Nc2ccc3c(c2)OCO3)c(C)c1 | 0.00501 µM [falling, full curve, poor fit] | 
Cn1c(=O)c(=O)n(C)c2cc([N+](=O)[O-])c([N+](=O)[O-])cc21 | 14.1 µM [rising, partial curve] | 
O=C(O)Cc1cc(I)c(Oc2ccc(O)c(I)c2)c(I)c1 | 15.8 µM [rising, partial curve] | 12.6 µM [rising, single point]

Four compounds picked at random from the list so far:
Compound | AC50 [1] | AC50 [2]
Cn1c(=O)c(=O)n(C)c2cc([N+](=O)[O-])c([N+](=O)[O-])cc21 | 14.1 µM [rising, partial curve] | 
O=C1c2cc3ccccc3c(-c3ccccc3)c2C(=O)N1c1ccccn1 | 17.8 µM [rising, single point] | 
CCCC(=O)c1cc(F)c(N2CCN(S(=O)(=O)c3ccccc3)CC2)cc1C | 35.5 µM [rising, single point] | 
CCc1ccc(S(=O)(=O)NCCc2csc(-c3cccnc3)n2)s1 | 35.5 µM [rising, single point] | 

(further entries)

Compound | AC50 [1] | AC50 [2]
O=C(/C=C/c1ccc([N+](=O)[O-])cc1)c1cccnc1 | 25.1 µM [falling, single point] | 35.5 µM [falling, single point]
COc1ccc(Cl)cc1NC(=O)C(C)N1CCN(C/C=C/c2ccccc2)CC1 (stereo not drawn) | 31.6 µM [rising, single point] | 14.1 µM [rising, single point]
O=S(=O)(Cc1ccccc1Cl)N1CCN(Cc2ccc3c(c2)OCO3)CC1 | 17.8 µM [rising, single point] | 
CCOC(=O)c1ccc2[nH]c(CSc3nnc(-c4cccc(F)c4)n3C)cc(=O)c2c1 | 35.5 µM [rising, single point] | 
C(=C\c1ccccc1)/CN1CCN(Cc2nc(Cc3ccccc3)no2)CC1 | 0.0316 µM [falling, full curve, poor fit] | 
Cc1ccc(/C=C2\C(=O)Nc3ccccc32)o1 | 10 µM [rising, partial curve] | 
O=C1CCCc2nc(N3CCN(Cc4ccccc4)CC3)ncc21 | 12.6 µM [rising, partial curve] | 
O=C1c2ccccc2C2=Nc3ccccc3SC(c3ccccc3F)C12 (stereo not drawn) | 14.1 µM [falling, partial curve] | 14.1 µM [falling, single point]
O=C(/C=C/c1cccc([N+](=O)[O-])c1)c1cccs1 | 35.5 µM [falling, single point] | 28.2 µM [falling, single point]
N#Cc1ccc(CSc2nnc(-c3cccnc3)o2)cc1 | 0.0224 µM [rising, full curve, poor fit] | 17.8 µM [rising, partial curve, poor fit]
O=C(Nc1nc(-c2ccc3ccccc3c2)cs1)C1CCN(S(=O)(=O)c2cccs2)CC1 | 2.51 µM [rising, full curve] | 
CC(C)C(=O)Nc1ccc(C(=O)Nc2nnc(C(C)C)s2)cc1 | 17.8 µM [falling, partial curve, poor fit] | 11.2 µM [falling, single point]
COc1cc(C(C)=O)cc(OC)c1O | 0.00708 µM [falling, full curve, poor fit] | 
CCc1ccc(-c2nc(CN3CCC(C(=O)NCc4ccccc4OC)CC3)c(C)o2)cc1 | 11.2 µM [rising, partial curve] | 3.55 µM [rising, full curve, poor fit]
COc1ccc(NC(=O)N2CCCC(c3nc(-c4ccc(C(C)C)cc4)no3)C2)cc1 (stereo not drawn) | 8.91 µM [rising, partial curve] | 5.62 µM [rising, full curve, poor fit]
CC(C)(C)NC(=O)c1ccc2c(c1)C1C3CCC(C3)C1C(c1ccccc1)N2 (stereo not drawn) | 25.1 µM [rising, partial curve] | 2.82 µM [rising, partial curve, poor fit]
COc1ccc(-n2nc(C(=O)NCC(=O)NCc3ccco3)c3ccccc3c2=O)cc1Cl | 11.2 µM [rising, single point] | 
CC(Oc1ccc(C(=O)c2ccccc2)cc1)C(=O)Nc1ccc(S(N)(=O)=O)cc1 (stereo not drawn) | 22.4 µM [rising, single point] | 
CCOc1ccc(C2C=C(c3ccc(C)cc3)Nc3nnnn32)cc1 (stereo not drawn) | 12.6 µM [rising, partial curve, poor fit] | 
Cc1ccc2nc(-c3ccc(NC(=O)CN4CCN(C(=O)c5ccco5)CC4)cc3)sc2c1 | 10 µM [rising, single point] | 
O=C(CCOc1ccccc1)N(Cc1cccnc1)c1nc2ccc(F)cc2s1 |  | 17.8 µM [falling, single point]
CCOc1ccc(/C=C/C2=NNC(=O)CC2)cc1 | 0.891 µM [rising, partial curve] | 1.41 µM [rising, partial curve]
O=C(Nc1ccc(F)cc1)N1CCN(C/C=C/c2ccccc2)CC1 | 35.5 µM [rising, single point] | 12.6 µM [rising, partial curve]
CC(=O)NNc1ncnc2ccccc12 | 8.91 µM [rising, partial curve] | 
CCOc1ncccc1C(=O)OCc1ccc(C(=O)OC)o1 | 35.5 µM [rising, single point] | 
CCOc1ccc(C(NC(C)=O)c2ccc(OC)c(OC)c2)cc1 (stereo not drawn) | 0.00316 µM [falling, full curve, poor fit] | 35.5 µM [falling, single point]
Cc1ccc(NCc2nnc(SCC(=O)c3ccccc3)o2)c(C)c1 | 11.2 µM [rising, partial curve] | 15.8 µM [rising, partial curve]
